Reference: paper PMC5698418 (Nature Communications, 2017)

System: BDNF-induced nuclear Arc expression in primary cortical neurons
Assay: Chemogenomic screen: high-content image-based assay of BDNF-induced nuclear Arc expression (96-well)
Assay type: cell-based, mouse
Settings: for Percentage of cell with nuclear Arc immunostaining above 2σ threshold: chemogenomic (SMART) screen, BDNF-induced nuclear Arc expression, primary cortical neurons, BDNF control 19.5; for Fold-change — Normalized to DMSO control (BDNF): nuclear Arc-positive cells relative to DMSO + BDNF control, negative values = decrease
Method: To increase the throughput of our pharmacological screening for modulators of Arc, the above mentioned assay was adapted to cultures of mouse primary cortical neurons in 96-well plates.
All 319 compounds were initially tested at a final concentration of 16.7 µM with three biological replicates.
Screening of compounds in the chemogenomic library was carried out using DIV13 primary forebrain cortical neurons cultured on poly-L-lysine/laminin-coated 96-well plates (Ibidi USA, Madison, WI). Cells were seeded at a density of 30,000 cells per well and treated with the compound library and BDNF according to the experimental design presented in Fig. 3a. After experimental treatment, cells were processed for Arc and acetyl-H3K9 immunocytochemistry according to the protocol described above. Both antigens (Arc and acetyl-H3K9) were imaged using an IN Cell Analyzer 6000 imaging system and a ×40 objective. […] High-throughput quantification of nuclear Arc immunofluorescence signal was performed in a similar fashion than the low-throughput procedure described above but with the exception that acetyl-H3K9 was used as a nuclear mask to guide the automated quantification of nuclear Arc immunofluorescence signal.

Row | Compound | Percentage of cell with nuclear Arc immunostaining above 2σ threshold | Fold-change — Normalized to DMSO control (BDNF)
1 | NS(=O)(=O)c1cc(C(=O)O)c(NCc2ccco2)cc1Cl [Furosemide] | 22.7% | 1.2 fold
2 | Cc1cnc(C(=O)NCCc2ccc(S(=O)(=O)NC(=O)NC3CCCCC3)cc2)cn1 [Glipizide] | 24.8% | 1.3 fold
